Drawing on paper PMC12036249, this text covers binding for four substances.

Protein sequences, listed by entry. Tags and fused reporters are not part of them.
UniProt O95863: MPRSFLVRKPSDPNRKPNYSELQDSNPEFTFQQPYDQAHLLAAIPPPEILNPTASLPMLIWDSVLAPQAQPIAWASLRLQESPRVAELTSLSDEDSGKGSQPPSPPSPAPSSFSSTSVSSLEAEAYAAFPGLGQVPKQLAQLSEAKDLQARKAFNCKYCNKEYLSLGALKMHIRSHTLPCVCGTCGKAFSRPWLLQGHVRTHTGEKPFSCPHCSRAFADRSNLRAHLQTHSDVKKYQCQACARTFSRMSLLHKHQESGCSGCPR
UniProt Q14289: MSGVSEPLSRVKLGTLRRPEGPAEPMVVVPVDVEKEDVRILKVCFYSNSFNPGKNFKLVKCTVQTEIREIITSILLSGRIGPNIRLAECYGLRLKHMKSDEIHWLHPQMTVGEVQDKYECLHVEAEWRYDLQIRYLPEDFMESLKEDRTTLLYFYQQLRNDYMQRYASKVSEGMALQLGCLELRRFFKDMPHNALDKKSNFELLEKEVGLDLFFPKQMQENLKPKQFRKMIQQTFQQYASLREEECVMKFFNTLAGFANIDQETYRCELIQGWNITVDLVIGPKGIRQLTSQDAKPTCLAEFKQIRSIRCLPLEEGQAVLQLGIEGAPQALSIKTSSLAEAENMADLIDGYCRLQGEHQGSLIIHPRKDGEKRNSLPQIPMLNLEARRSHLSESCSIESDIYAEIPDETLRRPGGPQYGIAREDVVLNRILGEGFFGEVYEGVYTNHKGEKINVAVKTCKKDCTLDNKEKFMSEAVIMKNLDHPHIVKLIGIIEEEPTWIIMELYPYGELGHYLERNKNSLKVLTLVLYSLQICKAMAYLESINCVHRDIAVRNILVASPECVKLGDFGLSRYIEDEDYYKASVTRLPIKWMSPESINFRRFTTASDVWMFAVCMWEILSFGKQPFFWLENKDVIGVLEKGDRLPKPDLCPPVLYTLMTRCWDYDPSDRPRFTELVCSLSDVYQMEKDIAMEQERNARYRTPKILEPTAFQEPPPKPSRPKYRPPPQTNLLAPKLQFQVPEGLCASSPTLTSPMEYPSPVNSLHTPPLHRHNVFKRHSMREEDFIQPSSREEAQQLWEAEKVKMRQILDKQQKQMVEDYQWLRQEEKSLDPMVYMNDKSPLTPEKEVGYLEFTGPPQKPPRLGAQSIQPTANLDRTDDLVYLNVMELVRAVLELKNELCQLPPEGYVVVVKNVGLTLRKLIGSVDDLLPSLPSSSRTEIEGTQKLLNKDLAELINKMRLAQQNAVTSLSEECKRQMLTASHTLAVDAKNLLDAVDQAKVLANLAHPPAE

No constants are given. Whether binding was seen depends on the method and setting. In cells and extracts the contact can be indirect. Some binding calls cover weakened binding; strength is not graded here.

For test [1], the target named is HA-tagged Snail1 (UniProt O95863). The test is described as follows: co-IP; Flag-PYK2 and HA-Snail1 co-transfected into HEK293T cells; lysate in IP lysis buffer; immunoprecipitation with anti-HA agarose (Fig. 3A) or anti-Flag agarose (Fig. 3B), overnight at 4 °C, beads washed more than five times, Western blot. (In general: Immunoblotting shows a protein as a band on a membrane.)

Test [2] has as its target Flag-tagged PYK2 (proline-rich tyrosine kinase 2) (UniProt Q14289). Described as above.
For test [3], the target named is endogenous Snail1 (human (endogenous in 11Z)) (UniProt O95863). In words: co-IP; endogenous proteins in 11Z cell lysate; immunoprecipitation with anti-Snail1 (Fig. 3C) or anti-PYK2 (Fig. 3D) antibody and Protein A/G agarose beads, overnight at 4 °C, Western blot.
For test [4], the target named is endogenous PYK2 (human (endogenous in 11Z)) (UniProt Q14289). The description is as above.

Turning to “Flag-tagged PYK2 (proline-rich tyrosine kinase 2) (from UniProt Q14289 1-1009) (enzyme)”, the binding result in test [1] is recorded as “binds”.
On to “HA-tagged Snail1 (from UniProt O95863 1-264)”, for which the binding entry in test [2] was “binds”.
Consider “endogenous PYK2 (from UniProt Q14289 1-1009) (enzyme)”, for which the binding entry in test [3] was “binds”.
For “endogenous Snail1 (from UniProt O95863 1-264)”, the binding entry in test [4] is “binds”.
